Patent US20180037631A1

Key:
rat EGFR (rat) = assay: SPR Biacore
monkey EGFR (monkey) = assay: SPR Biacore

binding (rat EGFR (rat)) | binding (monkey EGFR (monkey)) | Binder
binds | binds | E4-GS10-I1 pegylated, His-tagged (designed binder, 40 kDa branched PEG on the Cys of the C-terminal Cys tail) MGVSDVPRDLEVVAATPTSLLISWHERDGSRQYYRITYGETGGNSPVQEFTVPGGVRTATISGLKPGVDYTITVYAVTDYFNPTTHEYIYQTTPISINYRTEIDKGSGSGSGSGSGSGSGSGSGSVSDVPRDLEVVAATPTSLLISWSARLKVARYYRITYGETGGNSPVQEFTVPKNVYTATISGLKPGVDYTITVYAVTRFRDYQPISINYRTEIDKPCQHHHHHH
binds | binds | I1-GS10-E85 pegylated, His-tagged (designed binder, 40 kDa branched PEG on the Cys of the C-terminal Cys tail) MGVSDVPRDLEVVAATPTSLLISWSARLKVARYYRITYGETGGNSPVQEFTVPKNVYTATISGLKPGVDYTITVYAVTRFRDYQPISINYRTEIDKGSGSGSGSGSGSGSGSGSGSVSDVPRDLEVVAATPTSLLISWTQGSTHYQYYRITYGETGGNSPVQEFTVPGMVYTATISGLKPGVDYTITVYAVTDYFDRSTHEYKYRTTPISINYRTEIDKPCQHHHHHH
binds | binds | I1-GS10-E4 pegylated, His-tagged (designed binder, 40 kDa branched PEG on the Cys of the C-terminal Cys tail) MGVSDVPRDLEVVAATPTSLLISWSARLKVARYYRITYGETGGNSPVQEFTVPKNVYTATISGLKPGVDYTITVYAVTRFRDYQPISINYRTEIDKGSGSGSGSGSGSGSGSGSGSVSDVPRDLEVVAATPTSLLISWHERDGSRQYYRITYGETGGNSPVQEFTVPGGVRTATISGLKPGVDYTITVYAVTDYFNPTTHEYIYQTTPISINYRTEIDKPCQHHHHHH

No constants are given. Whether binding was seen depends on the method and setting. Binding can be weak; no strength is given. Sequences can lack the tags named with a protein.
